Screening data, single-dose tests

Amino acid sequences for entries named in this document (tags omitted).
UniProt P9WPC5, whole entry: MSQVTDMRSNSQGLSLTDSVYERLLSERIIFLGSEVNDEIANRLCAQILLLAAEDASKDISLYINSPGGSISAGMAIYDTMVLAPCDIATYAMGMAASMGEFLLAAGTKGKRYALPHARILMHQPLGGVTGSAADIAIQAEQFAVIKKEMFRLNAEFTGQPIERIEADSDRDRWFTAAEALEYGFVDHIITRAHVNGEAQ
UniProt P9WPC3, whole entry partner: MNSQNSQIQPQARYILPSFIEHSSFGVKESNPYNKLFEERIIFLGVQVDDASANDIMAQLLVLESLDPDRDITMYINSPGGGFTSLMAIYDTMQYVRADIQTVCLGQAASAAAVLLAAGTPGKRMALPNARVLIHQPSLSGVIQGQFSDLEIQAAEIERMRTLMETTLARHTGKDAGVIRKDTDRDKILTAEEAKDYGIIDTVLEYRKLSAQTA
UniProt P9WFT3, whole entry: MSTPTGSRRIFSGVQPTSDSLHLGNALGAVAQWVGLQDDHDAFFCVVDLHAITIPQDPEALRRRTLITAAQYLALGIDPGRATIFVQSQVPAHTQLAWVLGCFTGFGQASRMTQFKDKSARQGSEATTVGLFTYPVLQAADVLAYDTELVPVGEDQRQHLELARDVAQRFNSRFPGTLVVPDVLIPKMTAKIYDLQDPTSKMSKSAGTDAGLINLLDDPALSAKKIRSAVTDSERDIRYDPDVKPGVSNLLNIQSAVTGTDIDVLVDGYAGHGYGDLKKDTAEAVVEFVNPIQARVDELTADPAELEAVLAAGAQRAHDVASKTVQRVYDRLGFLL

Measurements from “University of Dundee, Small-Polar-MMV Screening Library” (2021), ChEMBL document CHEMBL3988442.

Values are the deposited “Percent Effect”, in %.
The record does not define 0% and 100%; most values in the screen are far below 50% and negative numbers occur (in some assays of this library far below -100).
The compounds are a random part of those screened.

ClpP1P2: 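ClpP1P2, Mycobacterium tuberculosis (UniProt P9WPC5 and UniProt P9WPC3). Protease assay of ClpP1P2, read by the AMC dye that it sets free. Concentration: 50 µM. Direction is inferred from only a few compounds that gave an IC50; most scored high, so higher reads as stronger inhibition. Most other retested compounds had strongly negative values. About 69,000 compounds were tested under these conditions; 0.015% (about 10) showed 50% or more at least once.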
MtTrpRS: 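Enzyme assay of tryptophanyl-tRNA synthetase; the read-out is not stated. Target: Tryptophan-tRNA ligase, Mycobacterium tuberculosis (UniProt P9WFT3). Compounds at 10 µM. Direction is not recorded; retested compounds ran higher, which suggests that high means inhibition. Size under these conditions: about 65,000 compounds, about 64 of them at 50% or above in at least one test.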

For Cc1ccc(CN2CCn3c(CNS(C)(=O)=O)nnc3C2)s1 the result was ClpP1P2: 4.36%; MtTrpRS: 4.535%. Cn1cc(C2CCCN2C(=O)CCCc2nc3ccccc3[nH]2)cn1 (stereo not given) gave ClpP1P2: 14.22%; MtTrpRS: 8.234%. For CNC(=O)[C@@H]1[C@@H](c2ccccc2)CN2CCN(Cc3ccccn3)C[C@H]12 the result was ClpP1P2: -3.506%. Result for COc1ccc2c(c1)CN(CC1CC1)C(=O)CCN2CC(C)(C)O was ClpP1P2: 12.71%. CCn1cc(NC(=O)C2CCN(Cc3noc(C4CC4)n3)CC2)cn1 read ClpP1P2: -4.265%; MtTrpRS: 0.8045%. With COCC(=O)N1CCN(C)C(=O)C(Cc2ccccc2-c2cccs2)C1 (stereo not given) the screen gave ClpP1P2: -3.883%; MtTrpRS: -8.509%. Cc1n[nH]c(C)c1CCN(C)c1ccc(-c2nc(C3CC3)no2)cn1 read ClpP1P2: 1.021%; MtTrpRS: -2.381%. Cc1ccc(C(=O)O)cc1-c1cccc2c1CCNC2 read ClpP1P2: 0.1186%; MtTrpRS: 2.193%.

Result for COc1ccc(C(=O)N(C)Cc2nnc3ccccn23)cc1 was ClpP1P2: -19.75%; MtTrpRS: 3.511%. With Cc1cc(CN(C2CC2)C(C)C(C)C)no1 (stereo not given) the screen gave ClpP1P2: -6.01%; MtTrpRS: 0.6224%. CO[C@H]1CN(C(=O)c2cccc(C)n2)CC[C@@]12CCCO2 read ClpP1P2: -5.465%; MtTrpRS: 5.405%. For CC(C)(C)c1cc(NC(=O)CN2CCn3c(nnc3C3CC3)C2)on1 the result was ClpP1P2: -3.965%; MtTrpRS: -5.587%. For NC(=O)c1ccc(CN2CCCC(O)C2)cc1 (stereo not given) the result was ClpP1P2: 8.507%; MtTrpRS: -3.94%. For CCn1cnnc1C1CCN(C(=O)COc2ccccc2OC)CC1 the result was ClpP1P2: 2.81%; MtTrpRS: -0.9893%. Result for CN(CC(F)(F)F)C(=O)C1CSCN1C(=O)OC(C)(C)C (stereo not given) was ClpP1P2: -10.68%; MtTrpRS: -4.775%. Result for COCCC1CN(c2nc(-c3ccccc3)nc3c2CCNC3)CCO1 (stereo not given) was ClpP1P2: -3.723%; MtTrpRS: 1.212%.

Result for CCN(CC)c1ncc2c(O)nc(C3CCNCC3)cc2n1 was ClpP1P2: -12.21%; MtTrpRS: -5.144%. Cc1ccc(S(=O)(=O)N(C)c2ccsc2C(=O)NCC(C)C)cc1 gave ClpP1P2: 25.73%; MtTrpRS: 29.01%. O=C(NCC(F)(F)F)C(c1cccnc1)N1CCCC1 (stereo not given) gave ClpP1P2: -4.65%; MtTrpRS: 0.7346%. With Cc1nc(C(NS(=O)(=O)N(C)C)c2ccccc2F)no1 (stereo not given) the screen gave ClpP1P2: -1.531%; MtTrpRS: -2.878%. Cc1noc(C)c1CN1Cc2ccnn2CC(C(=O)NCC2CC2)C1 (stereo not given) read ClpP1P2: -1.624%; MtTrpRS: -7.819%. With CN(CC(O)COc1ccc(C(F)(F)F)cc1)C(=O)Nc1nncs1 (stereo not given) the screen gave ClpP1P2: -6.349%; MtTrpRS: -0.9331%.